Experimental data from publication PMC12360603.
Results are given in words; binding and its absence hold for the method and conditions named. In cells and extracts the contact can be indirect. Some results given as binding are weak or reduced against the parent protein; the word gives no strength.

Sequences of proteins named here, by UniProt entry; tags and fusion partners are left off. Residues count along the entry.
UniProt Q68FX9, residues 37-310: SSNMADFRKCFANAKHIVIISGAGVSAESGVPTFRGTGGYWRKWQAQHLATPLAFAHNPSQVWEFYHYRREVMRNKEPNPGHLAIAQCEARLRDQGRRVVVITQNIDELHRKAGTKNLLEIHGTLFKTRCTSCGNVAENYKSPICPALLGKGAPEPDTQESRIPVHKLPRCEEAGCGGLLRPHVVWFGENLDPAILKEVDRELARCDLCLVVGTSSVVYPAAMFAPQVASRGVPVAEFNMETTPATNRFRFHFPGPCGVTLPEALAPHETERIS
UniProt O35547: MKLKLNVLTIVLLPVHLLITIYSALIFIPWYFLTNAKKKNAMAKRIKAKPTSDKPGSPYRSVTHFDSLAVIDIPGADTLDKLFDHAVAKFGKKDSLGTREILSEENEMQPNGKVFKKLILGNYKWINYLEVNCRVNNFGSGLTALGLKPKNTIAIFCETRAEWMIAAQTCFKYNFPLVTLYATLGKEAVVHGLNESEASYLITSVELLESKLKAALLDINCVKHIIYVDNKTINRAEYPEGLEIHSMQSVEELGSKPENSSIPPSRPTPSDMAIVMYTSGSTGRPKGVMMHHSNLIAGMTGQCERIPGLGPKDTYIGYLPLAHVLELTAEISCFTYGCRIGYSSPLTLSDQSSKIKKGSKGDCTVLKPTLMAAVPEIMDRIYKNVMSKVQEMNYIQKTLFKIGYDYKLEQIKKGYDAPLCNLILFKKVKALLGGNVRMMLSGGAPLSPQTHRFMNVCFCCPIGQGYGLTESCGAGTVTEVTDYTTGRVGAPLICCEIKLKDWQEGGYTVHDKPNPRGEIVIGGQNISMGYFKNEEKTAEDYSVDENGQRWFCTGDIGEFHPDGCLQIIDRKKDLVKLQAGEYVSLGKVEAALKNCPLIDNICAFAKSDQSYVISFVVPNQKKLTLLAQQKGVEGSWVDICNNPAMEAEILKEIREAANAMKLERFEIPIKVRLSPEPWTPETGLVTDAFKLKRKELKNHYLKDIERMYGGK

Target: SIRT5 (rat (endogenous in rat chondrocytes)) (UniProt Q68FX9)
Test: co-IP; endogenous; cell lysates incubated with SIRT5-specific antibodies and protein A/G agarose beads; immunoprecipitated proteins analysed by Western blot with ACSL4-specific antibodies

binding: binds
Substance: ACSL4 (from UniProt O35547 1-711) (enzyme)
